{
  "source": "paper PMC8352719",
  "about": "(The Journal of General Physiology, 2021)",
  "origin": "cited, not measured here",
  "test_system": "intestinal longitudinal muscle",
  "conditions": "ref Giagnoni et al., 1983; Mackerer et al., 1976; cited from earlier work",
  "data": [
    {"smiles": "CN(C)C(=O)C(CCN1CCC(O)(c2ccc(Cl)cc2)CC1)(c1ccccc1)c1ccccc1", "note": "[LOP, 4-[4-(4-chlorophenyl)-4-hydroxypiperidin-1-yl]-N,N-dimethyl-2,2-diphenylbutanamide]", "values": [
      {"measurement": "IC50 to inhibit contractions in intestinal longitudinal muscle", "value": "nanomolar range"}
    ]}
  ]
}
